≈ marks a conversion by molar mass, not a printed value.
Assay: physchem
Conditions: buffer

Q: With `Nc1nc(Nc2ccc(Oc3ccnc4[nH]ccc34)c(F)c2)cc(-c2ccncc2)n1` as the compound, how does the solubility read?
A: 3 µg/mL (≈ 7.26 µM)

From ChEMBL document CHEMBL5715943, “Design and synthesis of potent and selective azaindole-based Rho kinase (ROCK) inhibitors” (ChemMedChem, 2008)
